Reference: patent US9149457B2, “Nutraceutical composition for PDE4 inhibition, enhanced dopamine metabolism and long term potentiation” (priority 2013, dated 2015)
At least one compound was matched to its structure with a doubt left.

Details: 1-4 mg daily dosage, found by the inventor

## C=C[C@@]1(C)CC(=O)[C@]2(O)[C@@]3(C)[C@@H](O)CCC(C)(C)[C@@H]3[C@H](O)[C@H](OC(C)=O)[C@@]2(C)O1 [Forskolin, forskolin]
  cognitive benefits: positive cognitive benefits
